At least one structure is not confirmed: it was looked up by name or label, or the drawing left a doubt.
System: BAE (bovine aortic endothelial)
Experiment: Proliferation arrest and loss of viability (cell number and propidium iodide, flow cytometry)
Assay type: cell-based
Settings: higher for tumor cells than for endothelial cells (Table 1)
Method: To distinguish between the anti-proliferative and pro-apoptotic effects of GSAO, treated cells were stained with propidium iodide (PI) to detect late-apoptotic or dead cells. The total number of cells and the proportion of cells that were PI-positive following 48 h treatment with GSAO were measured by flow cytometry.

SMILES: N[C@@H](CCC(=O)N[C@@H](CSCC(=O)Nc1ccc([As]=O)cc1)C(=O)NCC(=O)O)C(=O)O (stereo partly shown) [GSAO, 4-(N—(S-glutathionylacetyl)amino)-phenylarsenoxide]
- concentration inducing proliferation arrest, tumor cells versus endothelial cells: 3 to >32

— patent publication US9353152B2, “Induction of the mitochondrial permeability transition” (NewSouth Innovations Pty Limited, priority 2002, dated 2016)
